Measurements taken from the supplement of paper PMC3334620.
Over roughly 33,000 sequences, “E-score (-0.5 to 0.5)” has its median near -0.0014; the highest 2% begin near 0.25. The list shows a part of the results.

These sequences were tested against T1, Cad1 (UniProt P24813) (assay: PBM E-score (8-mer binding enrichment) (E-score (-0.5 to 0.5)); higher = stronger / more preferred TF binding). Settings: protein concentration: 100 nM; construct: GST-full length.
T1 sequence: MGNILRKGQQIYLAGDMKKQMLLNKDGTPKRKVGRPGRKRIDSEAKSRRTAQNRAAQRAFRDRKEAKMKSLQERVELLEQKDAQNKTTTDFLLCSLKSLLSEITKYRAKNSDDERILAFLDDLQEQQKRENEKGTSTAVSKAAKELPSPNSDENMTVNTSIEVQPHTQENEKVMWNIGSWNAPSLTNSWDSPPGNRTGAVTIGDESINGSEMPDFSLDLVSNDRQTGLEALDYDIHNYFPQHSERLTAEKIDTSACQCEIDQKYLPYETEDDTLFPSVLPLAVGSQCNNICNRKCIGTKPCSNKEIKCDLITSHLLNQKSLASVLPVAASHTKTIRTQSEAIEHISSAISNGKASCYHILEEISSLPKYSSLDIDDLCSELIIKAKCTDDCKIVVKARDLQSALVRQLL
Method in brief: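 Yeast transcription factors carrying a GST tag, as full-length proteins or DNA-binding domains, were produced by PURExpress in vitro transcription/translation. About 100-200 nM protein was applied to universal all-10-mer Agilent arrays, double-stranded by primer extension on fresh or once-stripped slides. Bound protein was detected with fluorescent anti-GST, and scans were normalised with masliner. The Universal PBM Analysis Suite gave each ungapped eight-base word, pooled with its reverse complement, an E-score, a modified Wilcoxon-Mann-Whitney statistic.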

Sequence | PBM E-score
AAAAGATG | 0.156
CAGAACCA | -0.145
CCGAGATC | 0.0304
AAAACCTT | -0.164
GACAAGAA | 0.0396
CCCAACTC | 0.0363
CAAGGTTC | -0.166
GACGTCGC | -0.0716
CATGGGCC | -0.172
GGTCCAAC | -0.249
AATCGCGG | 0.0411
CGTCAGGA | 0.127
GACTGAAC | -0.109
GATGTACA | 0.171
ACCTGGTG | -0.215
AAAGGAGT | -0.0982
AGATGTAT | 0.0847
ACAGAATC | 0.0246
CACCTGCC | -0.0155
ACTGCGAC | 0.105
TATATTAA | 0.326
ACACGTGA | 0.026
TAACTCGA | 0.275
CAGTAGCG | 0.019
AACTTGTC | 0.0539

Sequence | PBM E-score
CTAGGTAA | 0.0317
ACCGCTAG | -0.2
AAACGAGG | -0.146
ACAGCTCT | -0.346
ACTAGAGT | -0.123
AATCTGCG | 0.00478
AACAGTAA | 0.0812
AAAAAGTA | -0.00035
CCCTTTAC | -0.0419
ACTGTTAA | 0.0465
CTCTAGAG | -0.0455
GTCTGTCA | 0.118
CCCTCTGA | -0.205
AGGAAAAG | -0.00624
CATCGTCA | 0.135
GTGGGCCA | 0.118
GTTCAGCA | 0.0509
ACGCCCGC | -0.0739
AACTTTCG | 0.0133
CAACGATG | -0.0351
GATGACAC | 0.0339
AATGGATA | -0.0508
ATCGAGGC | 0.0987
CTTATGAC | 0.092
GAATTCGA | 0.123

Sequence | PBM E-score
CGTTATTC | 0.15
AGCATGTA | -0.059
GCTGAGAA | 0.0017
ACTTTTCC | 0.0268
GGTATACC | 0.197
CACCGAGC | 0.114
AGTGTTCC | 0.0953
GGGGACCA | -0.199
CCATGCAC | -0.064
TATGAGCA | -0.0237
ATAGAGAG | -0.301
TGTTGCAA | 0.228
CCTCACCG | -0.335
CCCCCGAC | -0.279
ACCGAGGT | -0.133
CGAATAAC | -0.0156
GTGTTCAA | 0.00707
GAGCCAGC | -0.243
ACTTTAAA | 0.0246
AGACGTGG | -0.0369
AGTGCTCA | -0.103
AAAGCGGC | 0.174
CTCTCTTA | -0.117
CGAAGTTA | 0.0875
AAGTCCTC | -0.0441

Sequence | PBM E-score
CAAGCTCA | -0.0161
AGCGGTGG | -0.2
CGATTATA | 0.184
AATCCTGT | 0.097
ACGAAAGA | 0.0722
CATGTTTC | 0.197
CTCGTAAA | 0.0173
TGATTGAA | 0.115
ATTTATCA | 0.239
AGGCCCGA | -0.0508
CGCCCTAG | -0.103
CACGTGGA | 0.154
AACTGTCC | 0.00027
ATGACGCG | 0.142
CTCACTTA | 0.0639
AGACCGTA | -0.267
TTGAACAA | 0.0402
AAAGTGTA | 0.181
TCGCTTAA | 0.149
ACTAGATC | -0.0134
ATGCGTGG | -0.183
ACCTAACG | -0.133
ATCTAAGG | 0.0177
ATCCGTGA | 0.129
GACCTCGA | 0.0881

Quoted from the listing.
TATGAGCA | PBM E-score: -0.0237
GATGTACA | PBM E-score: 0.171

Additional records.

Sequence | PBM E-score
CCCGGCAG | -0.0576
CAAGGATC | 0.057
CAGTGACA | 0.0358
ATATAAAT | 0.195
AACCCAAA | 0.0249
ACTAGCTG | -0.0129
CAAGCCCC | -0.256
GAGCGGCA | -0.0597
CCCGCGAC | -0.0213
AGTTAGCG | 0.156
GTAACAGA | 0.201
CGTTACAA | 0.16
CACTTAGA | 0.171
GGACTCAA | -0.0941
ATAACGAG | -0.0492
GGAACGCA | -0.0134
AACATTAG | 0.0321
TACAAAAA | 0.111
CAGACGGC | -0.0553
GCACAGGC | 0.0211
GACGTTGA | 0.08
CGGGCCGC | -0.117
AGCAGGCG | -0.0168
ATTACCAG | 0.0906
ACATCTCA | 0.0823

Sequence | PBM E-score
TTCTAGAA | 0.0653
ACAACTGG | 0.0106
ACGGGTCC | -0.22
ACCGCGCG | 0.225
TATCCTGA | 0.23
ATAAGACG | -0.0148
GATATCCA | 0.145
ATCAAAAA | 0.149
CGTGACTC | -0.27
CCCTCCAC | -0.096
CAGCAGGG | -0.205
CGTCACAC | -0.00722
CGTCCACG | 0.0657
CAAGTAGC | -0.0227
ATAATTCG | 0.168
GATCAATA | 0.135
CTAACTGA | 0.0613
CGGGCTAC | -0.0235
AGCTTTTA | 0.00175
ACGCGAAC | -0.0346
ACCATGGA | -0.23
CGTGTCTA | 0.00846
GCGTGGAC | 0.0613
GCGACGCA | 0.0508
TGTACTAA | 0.0856

Sequence | PBM E-score
AAGAAGAG | -0.0661
CTCTGGGA | -0.252
AGTCCACC | -0.0457
AGTGGGCA | -0.114
CGAGATAC | 0.183
GTGGTCAA | -0.00284
GAAATACA | 0.0609
ACGCATGA | 0.0155
CCCCGACA | -0.154
AATTCCGT | 0.199
TGAGCACA | 0.065
CAATTCAC | 0.121
CCTCACGC | 0.236
ACGTACCT | -0.253
TGCCGCAA | 0.106
CTCACCAG | -0.127
ACCAAGTC | 0.0324
CGGTGCAA | -0.0654
AGGAACAT | 0.15
TATGAGAA | 0.18
CTCAGCTA | -0.171
AGAAACTA | -0.145

Another view of part of the listing above:
Sequence	PBM E-score
CTCACCAG	-0.127
ACCAAGTC	0.0324
CGGTGCAA	-0.0654
